The text below walks through data of PubChem BioAssay AID1487 (National Center for Advancing Translational Sciences (NCATS), 2009).

This assay is described as follows: qHTS Assay for Modulators of Lamin A Splicing. The note with it: HeLa LMNA splicing GFP/RFP minigene ratio, 48 h. An outline of the steps:
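S3 HeLa stable clones carrying a lamin A-EGFP splicing minigene plus DsRed2 were seeded at 600 cells/well in Opti-MEM with 2% FBS, pin-dosed and incubated 48 h at 37°C. Acumen cytometry (488 nm) gave the GFP/RFP total-intensity ratio.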
For orientation: In qHTS, concentration-response curves come from the screen itself.

The mark [1] stands for this setting: measured here: RFP viability control channel.
The mark [2] stands for this setting: measured here: GFP splicing reporter channel.

The other results are listed elsewhere or left out. Shown are side measurements of this screen, not its main read-out; they come without a call. Compounds called inactive in the main read-out are mostly missing here. The note in brackets gives the kind of curve behind each potency; many fits are weak.

In general, AC50 refers to the midpoint of the concentration-response curve, whichever way the signal moves. For the molecule `CC1CCN(c2oc(-c3ccccc3F)nc2C#N)CC1`, under setting [1], the AC50 is 12.6 µM [rising, partial curve, poor fit].

`CCN(CC)S(=O)(=O)c1ccc(O)c(NC(=O)CN2CCc3ccccc3C2)c1`: under setting [2], the AC50 is 0.0891 µM [falling, full curve, poor fit].

`COc1cc(/C=N/NC(=O)c2sc(N)c(C#N)c2C)cc(Br)c1O`: the AC50 runs as follows: under setting [2], 31.6 µM [rising, single point]; under setting [1], 35.5 µM [rising, single point]. For the molecule `CCOC(=O)C1=C(c2ccccc2)NC(SCC(=O)Nc2cccc(C)c2)=C(C#N)C1c1ccco1` (stereo not given), the AC50 under setting [1] was 35.5 µM [rising, single point]. Same read-out and setting: in the case of `c1cncc(CNc2ncnc3sccc23)c1` it was 11.2 µM [falling, single point]. For the molecule `COc1ccc([N+](=O)[O-])cc1NC(=O)CSc1ncccn1`, the AC50 by setting is: under setting [2], 6.31 µM [falling, full curve, poor fit]; under setting [1], 5.62 µM [falling, partial curve, poor fit]. For the molecule `COc1ccccc1-c1nc(C#N)c(N2CCN(c3ccccc3)CC2)o1`, the AC50 under setting [1] is 20 µM [rising, partial curve, poor fit]. Take `CCCN=Cc1ccc(O)cc1`: the AC50 under setting [2] is 8.91 µM [falling, partial curve, poor fit].

For `O=C(CNS(=O)(=O)c1ccccc1)Nc1ccc2c(c1)OCO2`, the AC50 under setting [2] is 0.0794 µM [rising, full curve, poor fit]. On to `COCCNC(=O)c1ccc2nc(CCc3ccccc3)oc2c1`, for which the AC50 under setting [2] is 0.1 µM [rising, full curve, poor fit]. Take `COc1ccccc1-c1cc(C(=O)N/N=C/c2cccs2)c2ccccc2n1`: the AC50 under setting [1] is 11.2 µM [rising, partial curve].

As to `CC(C)(C)n1nnnc1C(c1ccc(Cl)cc1)N(Cc1cccnc1)Cc1ccco1` (stereo not given), the AC50 under setting [2] was 17.8 µM [rising, single point] and the AC50 under setting [1] is 31.6 µM [rising, single point]. In the case of `COc1ccc(NC(=O)c2oc3ccc(S(=O)(=O)N(C)C4CCCCC4)cc3c2C)cc1Cl`, the AC50 under setting [2] is 8.91 µM [falling, full curve, poor fit]. For the molecule `CCc1nnc(NC(=O)c2ccc(S(=O)(=O)NC3CCCCC3)cc2)s1`, the AC50 under setting [1] was 4.47 µM [rising, full curve]. In the case of `CCOc1ccc2nc(NS(=O)(=O)Cc3ccccc3)sc2c1`, the AC50 under setting [2] was 0.501 µM [falling, full curve, poor fit]. On to `O=[N+]([O-])c1nn(-c2ccc3c(c2)OCCO3)n(O)c1=NC1CCCCC1`, for which the AC50 is 28.2 µM [rising, single point] under setting [2] and 15.8 µM [rising, single point] under setting [1]. With `COC(=O)/C=C1/C(=O)N/C(=N\c2nc(C)cc(C)n2)N1c1ccc(OC)cc1`, the AC50 under setting [1] was 7.94 µM [rising, partial curve]. Turning to `CCCCNc1nc2c(c(=O)n(C)c(=O)n2C)n1Cc1cccc(OC)c1`, the AC50 was 3.55 µM [rising, full curve] under setting [2] and 7.94 µM [rising, partial curve] under setting [1].

In the case of `COc1ccc(N2CCN(C(=O)CN(Cc3ccc(Cl)cc3)S(C)(=O)=O)CC2)cc1`, the AC50 under setting [1] is 35.5 µM [rising, single point]. Regarding `Cc1ccccc1Nc1nc(N)nc(CSc2nc3ccccc3s2)n1`, the AC50 was 11.2 µM [rising, single point] under setting [2] and 12.6 µM [rising, partial curve, poor fit] under setting [1]. As for `Cc1ccc(C2(C)CC(C)(C)N(C(=O)CSc3nnc(C)s3)c3ccccc32)cc1` (stereo not given), the AC50 under setting [1] is 14.1 µM [rising, single point]. For `Nc1c(NCCc2ccccc2)c2ccccc2oc1=O`, the AC50 under setting [2] is 0.00447 µM [falling, full curve, poor fit]. In the case of `Cc1cc(Br)c(Cl)cc1NC(=O)CN1C(=O)C2C3CC(c4ccccc4)C(C3)C2C1=O` (stereo not given), the AC50 under setting [2] is 22.4 µM [falling, single point] and the half-maximal activity concentration (AC50) under setting [1] is 14.1 µM [falling, single point]. Turning to `Cn1c(=O)c2c(SCC(=O)NCc3ccco3)nc(-c3ccccc3F)nc2n(C)c1=O`, the AC50 under setting [2] was 4.47 µM [falling, full curve] and the AC50 under setting [1] was 3.55 µM [falling, single point]. With `Cc1oc(-c2ccc(Cl)cc2)nc1CN1CCCC(C(=O)N2CCN(C(=O)c3ccco3)CC2)C1` (stereo not given), the AC50 under setting [1] is 11.2 µM [rising, partial curve]. As for `Cc1cc(Nc2nnnn2-c2ccccc2)n(-c2ccc(Cl)cc2)n1`, the AC50 under setting [1] was 20 µM [rising, partial curve]. For `CC(=O)c1ccc(N2CCN(c3ccc(S(=O)(=O)NCCCN(C)C)cc3[N+](=O)[O-])CC2)cc1`, the AC50 under setting [2] is 25.1 µM [falling, single point]. Turning to `CC1CCN(c2nc3ccccc3nc2C(C#N)C(=O)OC2CCCCC2)CC1` (stereo not given), the AC50 reads like this: under setting [2], 35.5 µM [falling, single point]; under setting [1], 14.1 µM [falling, single point].

As for `O=C(CSCc1ccc(F)cc1)N1CCN(c2ccccc2)CC1`, the AC50 is, setting by setting: under setting [2], 11.2 µM [rising, single point]; under setting [1], 15.8 µM [rising, single point]. With `O=C1c2ccsc2SCCN1Cc1ccc(Cl)cc1Cl`, the AC50 is 12.6 µM [rising, single point] under setting [2] and 20 µM [rising, single point] under setting [1]. Consider `COCCN(CCOC)S(=O)(=O)c1ccc(C(=O)Nc2nnc(COC)o2)cc1`, for which the AC50 under setting [2] is 0.00891 µM [rising, full curve, poor fit]. For the molecule `Cc1ccnc(N2CCC(C(=O)Nc3cccc(C(F)(F)F)c3)CC2)n1`, the AC50 under setting [1] was 14.1 µM [rising, single point].

In the case of `COC(=O)c1c(C(=O)OC)c(-c2ccc(Cl)c(Cl)c2)n2c1CCC2`, the AC50 under setting [1] is 12.6 µM [rising, partial curve, poor fit].

Consider `CCCc1sc(N/N=C/c2ccccn2)nc1-c1ccc(Br)cc1`, for which, under setting [1], the AC50 was 5.62 µM [rising, full curve].

On to `COc1ccc(NS(=O)(=O)c2ccc3[nH]c4c(c3c2)CCCC4)c(OC)c1`, for which the AC50 under setting [1] is 31.6 µM [rising, single point].

As for `Cc1csc(SCC(=O)c2cc(C)n(Cc3cccs3)c2C)n1`, the AC50 under setting [2] was 8.91 µM [rising, partial curve, poor fit] and the AC50 under setting [1] is 11.2 µM [rising, partial curve]. As for `NC(CSSCC(N)C(=O)O)C(=O)O` (stereo not given), the AC50 under setting [2] is 0.0178 µM [rising, full curve, poor fit]. The same measure, in the same setting: in the case of `Cc1cccc(C(=O)NCC(c2ccc3c(c2)OCO3)N2CCOCC2)c1` (stereo not given) it was 0.02 µM [falling, full curve]; in that of `CCc1cccc2c3c([nH]c12)C(CC)(CC(=O)O)OCC3` (stereo not given), 0.0501 µM [rising, full curve, poor fit]. Same read-out and setting: for `CCc1ccc(C2C(C(=O)Nc3ccccc3)=C(C)Nc3nc(SCC(=O)c4ccc(C)cc4)nn32)cc1` (stereo not given) the value was 20 µM [rising, single point]. In the case of `O=[N+]([O-])c1ccc(Cl)cc1N1CCCC1`, the AC50 under setting [1] is 35.5 µM [rising, single point]. For `CCSCCc1nnc(NC(=O)Nc2cccc(C(F)(F)F)c2)s1`, under setting [1], the AC50 was 31.6 µM [rising, single point]. For the molecule `O=C(CSc1nccn1Cc1ccccc1)NC1CCCC1`, the AC50 under setting [2] was 0.178 µM [rising, full curve, poor fit]. Consider `O=C(NCCc1ccccc1)C(=O)NCC(c1cccnc1)N1CCN(c2ccc(F)cc2)CC1` (stereo not given), for which the AC50 is, setting by setting: under setting [2], 20 µM [falling, partial curve]; under setting [1], 17.8 µM [falling, partial curve, poor fit]. Regarding `CCC(=O)N1CCc2cc(CNC(=O)Nc3ccc(OC)cc3OC)ccc21`, the AC50 is 0.0398 µM [falling, full curve, poor fit] under setting [2] and 10 µM [falling, partial curve, poor fit] under setting [1].

With `CNc1nnc(CSc2nc3ccccc3s2)s1`, the concentration at half-maximal activity (AC50) under setting [1] is 14.1 µM [rising, single point].

On to `Cc1cccc(Cn2c(=O)n(CCCC(=O)NCc3ccco3)c(=O)c3ccccc32)c1`, for which the AC50 under setting [1] was 35.5 µM [rising, single point]. In the case of `O=C(NCCCn1ccnc1)Nc1ccc(Cl)cc1Cl`, the AC50 under setting [1] is 10 µM [rising, partial curve]. On to `Cc1ccccc1CN1CCc2c(OCC(=O)N3CCCc4ccccc43)cccc2C1=O`, for which the AC50 under setting [1] is 2.82 µM [rising, partial curve, poor fit]. As for `COc1ccc(C)cc1-n1[nH]nnc1=S`, the AC50 is, setting by setting: under setting [2], 5.62 µM [falling, single point]; under setting [1], 4.47 µM [falling, partial curve]. In the case of `CC(=O)C1=C(C)NC(C)=C(C(C)=O)C1c1ccc(-c2ccccc2Cl)o1`, the AC50 under setting [1] was 11.2 µM [rising, single point]. On the same count and under the same terms, in the case of `COC(=O)c1ccccc1NC(=O)CSc1nc(-c2ccco2)cc(C(F)(F)F)n1` it was 5.62 µM [rising, single point].

Consider `O=C(Nc1cccc(-c2nnc(-c3ccccc3)o2)c1)c1ccc(Br)o1`, for which the AC50 is, setting by setting: under setting [2], 35.5 µM [falling, single point]; under setting [1], 35.5 µM [falling, single point]. Regarding `COc1cccc(/C=N/NC(=O)CN2CC(c3ccccc3)CC2=O)c1O` (stereo not given), the AC50 by setting is: under setting [2], 22.4 µM [rising, single point]; under setting [1], 25.1 µM [rising, partial curve]. With `CCN(CC)c1ccc2cc(-c3nc4ccccc4[nH]3)c(=O)oc2c1`, the half-maximal activity concentration (AC50) under setting [2] is 2.24 µM [falling, full curve, poor fit] and the AC50 under setting [1] is 1.12 µM [falling, partial curve].

`Cc1nn(C)cc1/C=N/NC(=S)Nc1ccc(Cl)cc1Cl`: the AC50 under setting [1] is 6.31 µM [falling, single point]. Still for that read-out and setting: in the case of `CCn1c(O)c(N=NC(=O)CNC(=O)c2ccco2)c2ccccc21` it was 10 µM [rising, partial curve].
